# Some of these results come from one statement about several compounds together.
# System: Klebsiella pneumoniae
# Assay: Killing of bacteria at multiples of MIC
# Format: cell-based
# Details: at 2×MIC and 5×MIC
substance,measurement,value
polymyxin B [PMB],time in which Klebsiella pneumoniae strain was killed,≤ 2 h

# Reference: US11865158B2, “Process and composition matter of nanoparticle formulation for systemic treatment of sepsis” (PURDUE RESEARCH FOUNDATION, priority 2019, dated 2024)
